## Primary screen of a compound library

The chains behind the UniProt entries cited, without tags or fusion partners. Residues count along the entry.
UniProt Q4DA54, 1-478: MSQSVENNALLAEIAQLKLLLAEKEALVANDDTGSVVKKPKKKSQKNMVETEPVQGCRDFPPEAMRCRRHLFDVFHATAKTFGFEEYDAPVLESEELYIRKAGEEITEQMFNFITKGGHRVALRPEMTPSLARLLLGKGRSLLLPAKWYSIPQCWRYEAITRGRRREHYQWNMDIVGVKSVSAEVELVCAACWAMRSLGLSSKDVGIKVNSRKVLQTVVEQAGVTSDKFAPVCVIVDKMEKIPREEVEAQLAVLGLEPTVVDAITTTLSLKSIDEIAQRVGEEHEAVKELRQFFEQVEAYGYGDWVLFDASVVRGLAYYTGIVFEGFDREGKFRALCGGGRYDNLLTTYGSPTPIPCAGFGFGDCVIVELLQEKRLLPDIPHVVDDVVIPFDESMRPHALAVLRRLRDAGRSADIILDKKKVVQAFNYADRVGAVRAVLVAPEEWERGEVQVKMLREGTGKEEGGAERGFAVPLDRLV
UniProt Q8IDJ8, 1-583: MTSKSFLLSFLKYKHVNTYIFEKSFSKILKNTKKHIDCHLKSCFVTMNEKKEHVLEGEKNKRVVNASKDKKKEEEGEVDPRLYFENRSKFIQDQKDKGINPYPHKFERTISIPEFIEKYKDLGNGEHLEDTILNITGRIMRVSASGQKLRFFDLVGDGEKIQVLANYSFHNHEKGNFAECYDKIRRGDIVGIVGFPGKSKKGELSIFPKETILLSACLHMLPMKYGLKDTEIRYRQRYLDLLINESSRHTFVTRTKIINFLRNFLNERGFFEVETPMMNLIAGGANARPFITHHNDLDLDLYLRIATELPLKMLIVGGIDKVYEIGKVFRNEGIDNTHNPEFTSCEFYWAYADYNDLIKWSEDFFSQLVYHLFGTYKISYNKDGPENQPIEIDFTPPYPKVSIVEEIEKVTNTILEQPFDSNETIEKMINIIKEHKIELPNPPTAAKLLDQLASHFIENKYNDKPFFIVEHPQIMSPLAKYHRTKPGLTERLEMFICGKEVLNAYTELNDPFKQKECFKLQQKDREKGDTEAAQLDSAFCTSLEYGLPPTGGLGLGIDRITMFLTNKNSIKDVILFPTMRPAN

Source: ChEMBL document CHEMBL3988442, “University of Dundee, Small-Polar-MMV Screening Library” (2021).

Results are given as percent effect. The controls that fix the scale are not given in the record; negative values are as filed. This is an unselected part of the compounds tested.

TcHisRS: 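Enzyme assay of histidyl-tRNA synthetase; the read-out is not stated. Target: Histidine-tRNA ligase, Trypanosoma cruzi CL Brener (UniProt Q4DA54). Tested at 30 µM. Higher reads as stronger inhibition (inferred: compounds with an IC50 in retests scored well above the rest). About 69,000 compounds were tested under these conditions; 0.045% (about 31) showed 50% or more at least once.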
PfKRS1: 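Lysine-tRNA ligase, Plasmodium falciparum 3D7 (UniProt Q8IDJ8). Enzyme assay of the cytosolic lysyl-tRNA synthetase in 384-well plates, read by luminescence. Compounds at 30 µM. Higher reads as stronger inhibition, judged from the few compounds that gave an IC50. Of about 69,000 compounds tested this way, about 49 (0.071%) reached 50% or more in at least one test.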

{"structure": "Cn1ccnc1CN1CC[C@H](O)[C@@H](n2ccc(=O)[nH]c2=O)CC1", "TcHisRS": 4.494, "PfKRS1": 1.681}
{"structure": "Cc1cccc(CN2C[C@@H]3CN(C(=O)c4cnccn4)C[C@@H]3C2=O)n1", "TcHisRS": 0, "PfKRS1": -0.8278}
{"structure": "CC(C)c1nc2n(n1)CC(NCc1nnc(-c3ccco3)o1)CC2", "stereo": "stereo unspecified", "TcHisRS": 0, "PfKRS1": -0.8188}
{"structure": "Cc1nc(CN2CCO[C@@H]3CN(Cc4cccs4)C[C@@H]3C2)cs1", "TcHisRS": 10.74, "PfKRS1": 7.708}
{"structure": "CCCN(Cc1cnn(C)c1)S(=O)(=O)c1cc(C)cc(F)c1", "TcHisRS": 6, "PfKRS1": -6.959}
{"structure": "COCC1CC2(CCN(Cc3ccco3)CC2)CN1C(C)C", "stereo": "stereo unspecified", "TcHisRS": 7.438, "PfKRS1": 10.58}
{"structure": "Cn1cc(CN2C[C@H](N3CCOCC3)[C@@H]3OCCC[C@@H]32)cn1", "TcHisRS": 3.226, "PfKRS1": 7.381}
{"structure": "Cc1cccc(CN2CC3(CCN(S(=O)(=O)C4CC4)CC3)OCC2=O)n1", "TcHisRS": 5.607, "PfKRS1": 0.5556}
{"structure": "CC(C)c1cc(NCC(O)c2ccc(F)cc2)n2nccc2n1", "stereo": "stereo unspecified", "TcHisRS": 4.167, "PfKRS1": -0.9482}
{"structure": "Cc1nc(C(=O)N2CCCC(c3ccc4sc(N)nc4n3)C2)co1", "stereo": "stereo unspecified", "TcHisRS": 3.333, "PfKRS1": 3.803}
{"structure": "Cc1ccc2c(c1)C1(CCNCC1)CC2NC1CC1", "stereo": "stereo unspecified", "TcHisRS": 2.21, "PfKRS1": 3.857}
{"structure": "Cc1ccc(C2CSCCN2C(=O)C2=CCCC2)o1", "stereo": "stereo unspecified", "TcHisRS": 0.8475, "PfKRS1": 3.79}
{"structure": "Cc1nn(CC(=O)NCc2cc3n(n2)CCCN(CC(C)C)C3)cc1Cl", "TcHisRS": 4.372, "PfKRS1": -2.592}
{"structure": "O=C(Nc1cccc(CNCc2ccccn2)c1)C1CCCC1", "TcHisRS": 4.373, "PfKRS1": 0.5951}
{"structure": "Cc1nn(C)cc1S(=O)(=O)N[C@@H]1CCC[C@@H](N2CCCC2)[C@@H]1O", "TcHisRS": 2, "PfKRS1": 0.2364}
{"structure": "COC(=O)[C@@H]1C[C@H](NC(=O)c2cc(=O)[nH]c3ccc(C)cc23)CN1C", "TcHisRS": 8.458, "PfKRS1": 8.15}
{"structure": "CC(=O)N(C)Cc1ccccc1NCc1c(C)cccc1C", "TcHisRS": -3.261, "PfKRS1": 4.056}
{"structure": "CCc1nnnn1Cc1csc(N(C)C(C)=O)n1", "TcHisRS": 10.89, "PfKRS1": -2.779}
{"structure": "Cn1ccnc1SCCNc1ccnc(C(F)(F)F)n1", "TcHisRS": 2.299, "PfKRS1": -0.4271}
{"structure": "Cc1nc([C@@H]2C[C@@H]3CCN(Cc4cnn(C)c4)C[C@H]3O2)sc1C", "TcHisRS": 1.98, "PfKRS1": 3.944}
{"structure": "COc1ccc(NC(=O)c2cccc(OC)c2OC)cc1", "TcHisRS": 1.053, "PfKRS1": -0.3606}
{"structure": "CNC(=O)NC(=O)CN1CCc2c(Br)ccc(F)c2C1", "TcHisRS": 7.182, "PfKRS1": 1.946}
{"structure": "Cc1nc(COc2ccc(S(=O)(=O)N(C)C)cc2)sc1C", "TcHisRS": 6.468, "PfKRS1": -2.03}
{"structure": "Cc1ccccc1C(=O)NC[C@@H]1CCN(C(=O)c2cccn2C)C[C@H]1O", "TcHisRS": 11.52, "PfKRS1": 0.1088}
{"structure": "Cc1nc(CNCc2c(C(C)C)nn(C)c2N2CCOCC2)cs1", "TcHisRS": 5.917, "PfKRS1": 0.5414}
{"structure": "Cc1ccc(CN2CC[C@H]3OCC[C@@]3(C(=O)N3CCCO3)C2)s1", "TcHisRS": 6.667, "PfKRS1": -1.604}
{"structure": "Cc1cnn(C2CCCN(C(=O)c3cccc(-n4cnnn4)c3)C2)c1", "stereo": "stereo unspecified", "TcHisRS": 6.158, "PfKRS1": 2.322}
{"structure": "CSCc1noc(-c2ccc(C)c(N3CCNC3=O)c2)n1", "TcHisRS": 0, "PfKRS1": 2.126}
{"structure": "c1nc(N2CCCC(Cn3cncn3)C2)c2ccsc2n1", "stereo": "stereo unspecified", "TcHisRS": 2.041, "PfKRS1": 3.201}
{"structure": "Cc1nc(C)n(CC2CCCCN2CCS(C)(=O)=O)n1", "stereo": "stereo unspecified", "TcHisRS": 3.333, "PfKRS1": -2.937}
{"structure": "CC(O)c1cnn(-c2ccccc2)c1", "stereo": "stereo unspecified", "TcHisRS": 3.867, "PfKRS1": -3.869}
{"structure": "COc1ccc(C(C(=O)O)N2CCN(C3CCCC3)CC2)cc1OC", "stereo": "stereo unspecified", "TcHisRS": 4.348, "PfKRS1": -2.773}
{"structure": "Cn1cc(CN2CC3(CCN(Cc4ccsc4)C3)C2)cn1", "TcHisRS": -1.961, "PfKRS1": -3.401}
{"structure": "CC1CCC(N2Cc3nc(N)ncc3C2=O)CC1", "stereo": "stereo unspecified", "TcHisRS": 6.087, "PfKRS1": 73.75}
{"structure": "COc1ccc(C(O)CNC(=O)NCc2csc(C)n2)cc1", "stereo": "stereo unspecified", "TcHisRS": -1.149, "PfKRS1": -6.851}
{"structure": "CN1CCN(C(=O)CC2CCN(CCc3ccccn3)CC2)CC1", "TcHisRS": -1.887, "PfKRS1": 2.293}
{"structure": "O=C(c1cc(=O)c(OCc2ccccc2F)co1)N1CCCC1", "TcHisRS": 1.22, "PfKRS1": 2.932}
{"structure": "Cc1nnc(NC(=O)NC2CCOc3ccccc32)s1", "stereo": "stereo unspecified", "TcHisRS": 4.959, "PfKRS1": 3.373}

The last 3 entries again:

With CN1CCN(C(=O)CC2CCN(CCc3ccccn3)CC2)CC1 the screen gave TcHisRS: -1.887%; PfKRS1: 2.293%.
With O=C(c1cc(=O)c(OCc2ccccc2F)co1)N1CCCC1 the screen gave TcHisRS: 1.22%; PfKRS1: 2.932%.
With Cc1nnc(NC(=O)NC2CCOc3ccccc32)s1 (stereo unspecified) the screen gave TcHisRS: 4.959%; PfKRS1: 3.373%.